Experimental data: PubChem BioAssay AID1224828 (NIAID, 2016)
Aim: 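Regulators linking TLR4 signalling to p65 nuclear translocation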 (primary screen). Cells: mouse RAW264.7 G9 macrophage reporter cells (GFP-p65, Tnf promoter-mCherry). Reagents: siRNA pool against mouse genes, 100 nM. Timing: 2 days siRNA transfection, then 40 min LPS before fixation. Treatment: LPS (Salmonella minnesota R595) at 10 ng/ml. Detection: 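Imaged p65 nuclear translocation ratio, normalised to the plate median, converted to robust z-scores and averaged across two replicates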. Direction: p65 translocation robust z-score: higher = more nuclear NF-kappaB p65 after LPS than the plate median; nuclear/cytoplasmic p65 ratio: higher = more nuclear NF-kappaB p65. Hit rule: 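Called active when z exceeds 3.3 or falls under -1.56 (median of Tlr4 controls), giving activity score of at least 50; no calls for control wells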. Calls: active = hit (p65 shift raised or lowered); inactive = no clear change.
Here is an unselected part of about 17,000 deposited reagents. 762 of all reagents (4.5%) count as active. 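Active calls include both raised and lowered p65 entry, mostly lowered; wells with fewer than 50 cells lack a z-score.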 Raw values are not corrected between plates. Reagents against one gene are numbered here.

Silencing of Cenps gave: p65 translocation robust z-score -2.02; nuclear/cytoplasmic p65 ratio, rep 1 = 1.22; nuclear/cytoplasmic p65 ratio, rep 2 = 1.11; low cell count flag enough cells to score; active.
After knock-down of Mrps10, the record shows p65 translocation robust z-score -1.82; nuclear/cytoplasmic p65 ratio, rep 1 = 1.52; nuclear/cytoplasmic p65 ratio, rep 2 = 1.29; low cell count flag enough cells to score; active.
Silencing of Ccnk resulted in: p65 translocation robust z-score 0.22; nuclear/cytoplasmic p65 ratio, rep 1 = 1.46; nuclear/cytoplasmic p65 ratio, rep 2 = 1.44; low cell count flag enough cells to score; inactive.
After knock-down of Scaf8 #1 the results were p65 translocation robust z-score 0.64; nuclear/cytoplasmic p65 ratio, rep 1 = 1.4; nuclear/cytoplasmic p65 ratio, rep 2 = 1.37; low cell count flag enough cells to score; inactive.
For Scaf8 #2, the values are p65 translocation robust z-score 0.88; nuclear/cytoplasmic p65 ratio, rep 1 = 1.54; nuclear/cytoplasmic p65 ratio, rep 2 = 1.6; low cell count flag enough cells to score; inactive.
For Asah1, the entry reads p65 translocation robust z-score 0.9; nuclear/cytoplasmic p65 ratio, rep 1 = 1.84; nuclear/cytoplasmic p65 ratio, rep 2 = 1.66; low cell count flag enough cells to score; inactive.
After knock-down of Ccdc121rt1 the results were p65 translocation robust z-score 0.77; nuclear/cytoplasmic p65 ratio, rep 1 = 1.54; nuclear/cytoplasmic p65 ratio, rep 2 = 1.64; low cell count flag enough cells to score; inactive.
For Ntan1, the entry reads p65 translocation robust z-score -0.39; nuclear/cytoplasmic p65 ratio, rep 1 = 1.73; nuclear/cytoplasmic p65 ratio, rep 2 = 1.41; low cell count flag enough cells to score; inactive.
After knock-down of Tmem100, the screen gave p65 translocation robust z-score 1.16; nuclear/cytoplasmic p65 ratio, rep 1 = 1.51; nuclear/cytoplasmic p65 ratio, rep 2 = 1.66; low cell count flag enough cells to score; inactive.
Against Cyb5b the deposit lists p65 translocation robust z-score 0.42; nuclear/cytoplasmic p65 ratio, rep 1 = 1.44; nuclear/cytoplasmic p65 ratio, rep 2 = 1.36; low cell count flag enough cells to score; inactive.
Knock-down of Plin4 came out at: nuclear/cytoplasmic p65 ratio, rep 1 = 1.29; nuclear/cytoplasmic p65 ratio, rep 2 = 1.17; low cell count flag fewer than 50 cells per well; well left out of scoring; inactive.
For Ptp4a2, the entry reads p65 translocation robust z-score 0.94; nuclear/cytoplasmic p65 ratio, rep 1 = 1.58; nuclear/cytoplasmic p65 ratio, rep 2 = 1.58; low cell count flag enough cells to score; inactive.
Depletion of Eif4e came out at: p65 translocation robust z-score -0.29; nuclear/cytoplasmic p65 ratio, rep 1 = 1.37; nuclear/cytoplasmic p65 ratio, rep 2 = 1.38; low cell count flag enough cells to score; inactive.
With knock-down of Gcfc2 the results were p65 translocation robust z-score 0.11; nuclear/cytoplasmic p65 ratio, rep 1 = 1.58; nuclear/cytoplasmic p65 ratio, rep 2 = 1.57; low cell count flag enough cells to score; inactive.
Knock-down of Cdc37l1 resulted in: p65 translocation robust z-score 0.23; nuclear/cytoplasmic p65 ratio, rep 1 = 1.56; nuclear/cytoplasmic p65 ratio, rep 2 = 1.35; low cell count flag enough cells to score; inactive.
After knock-down of Ffar3, the screen gave p65 translocation robust z-score -0.25; nuclear/cytoplasmic p65 ratio, rep 1 = 1.41; nuclear/cytoplasmic p65 ratio, rep 2 = 1.61; low cell count flag enough cells to score; inactive.
For Fxr2, the values are p65 translocation robust z-score -0.2; nuclear/cytoplasmic p65 ratio, rep 1 = 1.42; nuclear/cytoplasmic p65 ratio, rep 2 = 1.33; low cell count flag enough cells to score; inactive.
Against Otos, the entry reads p65 translocation robust z-score 0.04; nuclear/cytoplasmic p65 ratio, rep 1 = 1.38; nuclear/cytoplasmic p65 ratio, rep 2 = 1.3; low cell count flag enough cells to score; inactive.
Silencing of St6galnac4 came out at: p65 translocation robust z-score 0.49; nuclear/cytoplasmic p65 ratio, rep 1 = 1.47; nuclear/cytoplasmic p65 ratio, rep 2 = 1.31; low cell count flag enough cells to score; inactive.
Against 4933430I17Rik, the entry reads p65 translocation robust z-score -0.74; nuclear/cytoplasmic p65 ratio, rep 1 = 1.32; nuclear/cytoplasmic p65 ratio, rep 2 = 1.31; low cell count flag enough cells to score; inactive.
Against Abhd18, the entry reads nuclear/cytoplasmic p65 ratio, rep 1 = 1.24; nuclear/cytoplasmic p65 ratio, rep 2 = 1.32; low cell count flag fewer than 50 cells per well; well left out of scoring; inactive.

Reformatted: 2 of the entries above.
Mrps10
- p65 translocation robust z-score: -1.82
- nuclear/cytoplasmic p65 ratio, rep 1: 1.52
- nuclear/cytoplasmic p65 ratio, rep 2: 1.29
- low cell count flag: enough cells to score
- Outcome: active

Ccnk
- p65 translocation robust z-score: 0.22
- nuclear/cytoplasmic p65 ratio, rep 1: 1.46
- nuclear/cytoplasmic p65 ratio, rep 2: 1.44
- low cell count flag: enough cells to score
- Outcome: inactive
